Laboratory results: publication PMC7311467
Results are given in words; binding and its absence hold for the method and conditions named. Binding seen in cells or lysates may run through a third protein. A result given as binding can be weak or reduced; the word gives no strength. Sequences can lack the tags named with a protein.

Biological target: T1, 3MYC-SENP2 (UniProt Q9HC62)
T1 sequence: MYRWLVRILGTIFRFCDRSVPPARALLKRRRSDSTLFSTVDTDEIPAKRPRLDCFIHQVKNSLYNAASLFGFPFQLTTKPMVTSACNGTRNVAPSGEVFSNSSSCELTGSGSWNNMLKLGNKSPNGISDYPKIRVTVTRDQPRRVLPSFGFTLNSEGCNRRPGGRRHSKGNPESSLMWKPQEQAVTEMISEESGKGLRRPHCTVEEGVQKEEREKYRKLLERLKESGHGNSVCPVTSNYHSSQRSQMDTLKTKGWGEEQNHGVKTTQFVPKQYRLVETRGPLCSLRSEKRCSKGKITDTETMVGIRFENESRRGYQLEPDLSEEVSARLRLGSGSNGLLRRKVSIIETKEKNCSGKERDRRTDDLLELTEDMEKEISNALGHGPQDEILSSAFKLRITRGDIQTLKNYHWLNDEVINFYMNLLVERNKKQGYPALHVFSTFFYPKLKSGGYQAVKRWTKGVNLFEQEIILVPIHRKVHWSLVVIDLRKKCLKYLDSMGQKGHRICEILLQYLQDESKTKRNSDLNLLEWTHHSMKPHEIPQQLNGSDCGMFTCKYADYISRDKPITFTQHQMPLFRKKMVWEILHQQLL
Assay: co-IP; reciprocal IP: HEK293T co-transfected for 48 h, RIPA lysate, anti-MYC-agarose overnight at 4 °C, five washes with RIPA, western blot

- binding: binds
Substance: hSSB1 N-terminal OB-fold domain (human) (domain or fragment)
